Results are given in words; binding and its absence hold for the method and conditions named.

Assay [1] addresses MsmX K43A from B. subtilis (B. subtilis) (UniProt P94360). As to the kind of experiment: SEC; last step of purification, Superdex 75 10/300 GL in buffer B (10 mM Tris-HCl pH 7.4, 300 mM NaCl, 10 mM MgCl2); both purified.
Assay [2] has the same target. As to the kind of experiment: crystal structure; crystallised without ligands, space group I222, one molecule in the asymmetric unit, 1.67 Å; interfaces looked at with the PISA server; both purified.

B1: MsmX K43A from B. subtilis (enzyme, UniProt P94360 1-365)
chain: MAELRMEHIYKFYDQKEPAVDDFNLHIADKEFIVFVGPSGCGASTTLRMVAGLEEISKGDFYIEGKRVNDVAPKDRDIAMVFQNYALYPHMTVYDNIAFGLKLRKMPKPEIKKRVEEAAKILGLEEYLHRKPKALSGGQRQRVALGRAIVRDAKVFLMDEPLSNLDAKLRVQMRAEIIKLHQRLQTTTIYVTHDQTEALTMATRIVVMKDGKIQQIGTPKDVYEFPENVFVGGFIGSPAMNFFKGKLTDGLIKIGSAALTVPEGKMKVLREKGYIGKEVIFGIRPEDIHDELIVVESYKNSSIKAKINVAELLGSEIMIYSQIDNQDFIARIDARLDIQSGDELTVAFDMNKGHFFDSETEVRIR
Regarding B1, the binding result in assay [1] and in assay [2] was “no binding” throughout.

These data come from publication PMC7658222.
